Laboratory results: patent publication US11603386B2, “Insect, tick, and mite repellent derived from Xenorhabdus budapestensis” (Wisconsin Alumni Research Foundation, priority 2017, dated 2023)

System: Aedes aegypti
Experiment: Repellent screening assay (in vitro membrane feeding, Hemotek feeder, treated cloth)
Type: in vivo
Settings: probit dose-response of repellency, adult females, 30 min exposure
From the text: FIG. 1 is a photograph of the equipment used for the repellent screening assay. The apparatus includes a temperature-controlled feeder unit which includes a collagen casing covered by conventional cheese cloth. The collagen mimics the surface of human and is in contact with a heating element (not seen in FIG. 1) whose temperature is controlled by the temperature controller. The collagen pad is saturated with a solution that mimics human blood. The compound whose repellency is to be tested is applied to the cheese cloth, which is then affixed to the collagen pad. In the main panel in FIG. 1, the feeder unit is shown in its operational position, on top of a container in which are mosquitos (or any other arthropod) that is to be repelled. […] In practice, a known amount of putative repellent is applied to the cheese cloth. Unfed mosquitos, for example, are within the mosquito container. The feeder unit is then placed on top of the mosquito container for a pre-determined amount of time. The mosquitos are then sacrificed and examined to determine how many mosquitos fed (i.e., were not repelled) and how many mosquitos were still unfed after the test (i.e., were repelled). In this fashion, very reliable data can be generated regarding the effectiveness of any putative repellent composition. See Katritzky, A. R., et al. (2008) Proc. Nat. […]

CCN(CC)C(=O)c1cccc(C)c1 [DEET, N,N-diethyl-3-methylbenzamide]
Slope ± SE: 1.09 ± 0.35

CCC(C)OC(=O)N1CCCCC1CCO (centres unmarked) [Picaridin]
Slope ± SE: 1.73 ± 0.35
